# This is one part of the list.
# B1: Clec39 (Caenorhabditis elegans) (protein)
# chain: MTSFYDNSSSSSKPVPLKTSRAQKIQILIFDNWKLILYGAISTLILVLAIMFSTLFFALPAANCDENSEPTKYYTTNAEITTTITTTNQKTTSTASSHLTTISSSATQIYSESSSSSTSQSTFTQSPPEISTTTIAPSDFSCQHGFTLVNNKCWKLVTSNQARPDADKICNGYGGATLFSIKSEQDNRAMIHFVKGQDIDFLWSGLLCSAGEPISCIWDIENGSTANYSNFADGFPNIVYGNCVYFITSGDEAGQWGNEQCGQVMNFVCELPATFQGKDGCKNNYEKSCYLRFDLNLTVPQAQNFCLEKCANLVSIHSANEVRFIMTIYDFIGEILIGALAPAQDFIYWLDGTPANYNNLKFFYNSTCVHMTVAPGMQNVGKWFTRFCTETGKFLCKRSIKNSCT
# Experiments:
# Experiment in all cases: glycan array binding signal (z-score within array); higher = stronger binding
# Conditions in all cases: glycan notation: IUPAC condensed, linker removed
# [1] = target: GlcNAc(b1-2)[GlcNAc(b1-4)]Man(a1-3)[GlcNAc(b1-4)][GlcNAc(b1-2)[GlcNAc(b1-6)]Man(a1-6)]Man(b1-4)GlcNAc(b1-4)GlcNAc
# Outline: (§1)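 Glycan array binding is given as a within-array Z-score, which can be read as non-binding when negative. The arrays, 3228 of them, came from the Consortium for Functional Glycomics database and were retained only where the protein sequence was available. Z-scores were averaged across arrays of the same protein sequence at different concentrations or buffers and across linkers.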
# [2] = target: GlcNAc(b1-2)[GlcNAc(b1-4)]Man(a1-3)[GlcNAc(b1-4)][GlcNAc(b1-2)[GlcNAc(b1-6)]Man(a1-6)]Man(b1-4)GlcNAc(b1-4)[Fuc(a1-6)]GlcNAc
# Outline: as §1
# [3] = target: GlcNAc(b1-2)[GlcNAc(b1-6)]Man(a1-6)[GlcNAc(b1-2)Man(a1-3)]Man(b1-4)GlcNAc(b1-4)GlcNAc
# Outline: as §1
# [4] = target: GlcNAc(b1-2)[GlcNAc(b1-6)]Man(a1-6)[GlcNAc(b1-2)Man(a1-3)]Man(b1-4)GlcNAc(b1-4)[Fuc(a1-6)]GlcNAc
# Outline: as §1
# [5] = target: GlcNAc(b1-2)[GlcNAc(b1-6)]Man(a1-6)[GlcNAc(b1-4)][GlcNAc(b1-2)Man(a1-3)]Man(b1-4)GlcNAc(b1-4)GlcNAc
# Outline: as §1
# GlcNAc(b1-3)Fuc = target: GlcNAc(b1-3)Fuc
# Outline: as §1
# GlcNAc(b1-3)Gal = target: GlcNAc(b1-3)Gal
# Outline: as §1
# [6] = target: GlcNAc(b1-3)Gal(b1-3)GalNAc
# Outline: as §1
# GlcNAc(b1-3)Gal(b1-4)Glc = target: GlcNAc(b1-3)Gal(b1-4)Glc
# Outline: as §1
# [7] = target: GlcNAc(b1-3)Gal(b1-4)GlcNAc
# Outline: as §1
# [8] = target: GlcNAc(b1-3)Gal(b1-4)GlcNAc(b1-2)Man(a1-3)[GlcNAc(b1-3)Gal(b1-4)GlcNAc(b1-2)Man(a1-6)]Man(b1-4)GlcNAc(b1-4)GlcNAc
# Outline: as §1
# [9] = target: GlcNAc(b1-3)Gal(b1-4)GlcNAc(b1-2)Man(a1-3)[GlcNAc(b1-3)Gal(b1-4)GlcNAc(b1-2)Man(a1-6)]Man(b1-4)GlcNAc(b1-4)[Fuc(a1-6)]GlcNAc
# Outline: as §1
# [10] = target: GlcNAc(b1-3)Gal(b1-4)GlcNAc(b1-2)[GlcNAc(b1-3)Gal(b1-4)GlcNAc(b1-6)]Man(a1-6)[GlcNAc(b1-3)Gal(b1-4)GlcNAc(b1-2)Man(a1-3)]Man(b1-4)GlcNAc(b1-4)GlcNAc
# Outline: as §1
# [11] = target: GlcNAc(b1-3)Gal(b1-4)GlcNAc(b1-3)Gal(b1-4)GlcNAc
# Outline: as §1
# [12] = target: GlcNAc(b1-3)Gal(b1-4)GlcNAc(b1-3)Gal(b1-4)GlcNAc(b1-2)Man(a1-3)[GlcNAc(b1-3)Gal(b1-4)GlcNAc(b1-3)Gal(b1-4)GlcNAc(b1-2)Man(a1-6)]Man(b1-4)GlcNAc(b1-4)GlcNAc
# Outline: as §1
# [13] = target: GlcNAc(b1-3)Gal(b1-4)GlcNAc(b1-3)Gal(b1-4)GlcNAc(b1-2)Man(a1-3)[GlcNAc(b1-3)Gal(b1-4)GlcNAc(b1-3)Gal(b1-4)GlcNAc(b1-2)Man(a1-6)]Man(b1-4)GlcNAc(b1-4)[Fuc(a1-6)]GlcNAc
# Outline: as §1
# [14] = target: GlcNAc(b1-3)Gal(b1-4)GlcNAc(b1-3)Gal(b1-4)GlcNAc(b1-2)[GlcNAc(b1-3)Gal(b1-4)GlcNAc(b1-3)Gal(b1-4)GlcNAc(b1-6)]Man(a1-6)[GlcNAc(b1-3)Gal(b1-4)GlcNAc(b1-3)Gal(b1-4)GlcNAc(b1-2)Man(a1-3)]Man(b1-4)GlcNAc(b1-4)[Fuc(a1-6)]GlcNAc
# Outline: as §1
# [15] = target: GlcNAc(b1-3)Gal(b1-4)GlcNAc(b1-3)Gal(b1-4)GlcNAc(b1-3)Gal(b1-4)GlcNAc(b1-2)Man(a1-3)[GlcNAc(b1-3)Gal(b1-4)GlcNAc(b1-3)Gal(b1-4)GlcNAc(b1-3)Gal(b1-4)GlcNAc(b1-2)Man(a1-6)]Man(b1-4)GlcNAc(b1-4)GlcNAc
# Outline: as §1
# [16] = target: GlcNAc(b1-3)Gal(b1-4)GlcNAc(b1-3)Gal(b1-4)GlcNAc(b1-3)Gal(b1-4)GlcNAc(b1-2)Man(a1-3)[GlcNAc(b1-3)Gal(b1-4)GlcNAc(b1-3)Gal(b1-4)GlcNAc(b1-3)Gal(b1-4)GlcNAc(b1-2)Man(a1-6)]Man(b1-4)GlcNAc(b1-4)[Fuc(a1-6)]GlcNAc
# Outline: as §1
# [17] = target: GlcNAc(b1-3)Gal(b1-4)GlcNAc(b1-3)Gal(b1-4)GlcNAc(b1-3)Gal(b1-4)GlcNAc(b1-2)[GlcNAc(b1-3)Gal(b1-4)GlcNAc(b1-3)Gal(b1-4)GlcNAc(b1-3)Gal(b1-4)GlcNAc(b1-6)]Man(a1-6)[GlcNAc(b1-3)Gal(b1-4)GlcNAc(b1-3)Gal(b1-4)GlcNAc(b1-3)Gal(b1-4)GlcNAc(b1-2)Man(a1-3)]Man(b1-4)GlcNAc(b1-4)[Fuc(a1-6)]GlcNAc
# Outline: as §1
# [18] = target: GlcNAc(b1-3)Gal(b1-4)GlcNAc(b1-3)Gal(b1-4)GlcNAc(b1-3)Gal(b1-4)GlcNAc(b1-3)Gal(b1-4)GlcNAc(b1-2)Man(a1-3)[GlcNAc(b1-3)Gal(b1-4)GlcNAc(b1-3)Gal(b1-4)GlcNAc(b1-3)Gal(b1-4)GlcNAc(b1-3)Gal(b1-4)GlcNAc(b1-2)Man(a1-6)]Man(b1-4)GlcNAc(b1-4)GlcNAc
# Outline: as §1
# [19] = target: GlcNAc(b1-3)Gal(b1-4)GlcNAc(b1-3)Gal(b1-4)GlcNAc(b1-3)Gal(b1-4)GlcNAc(b1-3)Gal(b1-4)GlcNAc(b1-2)Man(a1-3)[GlcNAc(b1-3)Gal(b1-4)GlcNAc(b1-3)Gal(b1-4)GlcNAc(b1-3)Gal(b1-4)GlcNAc(b1-3)Gal(b1-4)GlcNAc(b1-2)Man(a1-6)]Man(b1-4)GlcNAc(b1-4)[Fuc(a1-6)]GlcNAc
# Outline: as §1
# [20] = target: GlcNAc(b1-3)Gal(b1-4)GlcNAc(b1-3)Gal(b1-4)GlcNAc(b1-3)Gal(b1-4)GlcNAc(b1-3)Gal(b1-4)GlcNAc(b1-2)[GlcNAc(b1-3)Gal(b1-4)GlcNAc(b1-3)Gal(b1-4)GlcNAc(b1-3)Gal(b1-4)GlcNAc(b1-3)Gal(b1-4)GlcNAc(b1-6)]Man(a1-6)[GlcNAc(b1-3)Gal(b1-4)GlcNAc(b1-3)Gal(b1-4)GlcNAc(b1-3)Gal(b1-4)GlcNAc(b1-3)Gal(b1-4)GlcNAc(b1-2)Man(a1-3)]Man(b1-4)GlcNAc(b1-4)[Fuc(a1-6)]GlcNAc
# Outline: as §1
binder,measurement,setting,value
B1,glycan array binding signal (z-score),[1],0.153
same,glycan array binding signal (z-score),[2],-0.483
same,glycan array binding signal (z-score),[3],-0.576
same,glycan array binding signal (z-score),[4],0.586
same,glycan array binding signal (z-score),[5],-0.669
same,glycan array binding signal (z-score),GlcNAc(b1-3)Fuc,0.515
same,glycan array binding signal (z-score),GlcNAc(b1-3)Gal,0.452
same,glycan array binding signal (z-score),[6],0.161
same,glycan array binding signal (z-score),GlcNAc(b1-3)Gal(b1-4)Glc,-0.771
same,glycan array binding signal (z-score),[7],-0.675
same,glycan array binding signal (z-score),[8],0.007
same,glycan array binding signal (z-score),[9],-0.822
same,glycan array binding signal (z-score),[10],1.07
same,glycan array binding signal (z-score),[11],0.546
same,glycan array binding signal (z-score),[12],0.778
same,glycan array binding signal (z-score),[13],0.417
same,glycan array binding signal (z-score),[14],0.227
same,glycan array binding signal (z-score),[15],-0.221
same,glycan array binding signal (z-score),[16],-0.25
same,glycan array binding signal (z-score),[17],0.618
same,glycan array binding signal (z-score),[18],0.024
same,glycan array binding signal (z-score),[19],0.46
same,glycan array binding signal (z-score),[20],0.475

# 2 entries from above, with bars between the fields:
binder | measurement | setting | value
B1 | glycan array binding signal (z-score) | [6] | 0.161
same | glycan array binding signal (z-score) | [18] | 0.024

# Reference: the supplement of paper PMC8728848
